Data reported in the supplement of paper PMC8728848.
The list shows a part of the results.

Experiments:
Experiment in all cases: glycan array binding signal (z-score within array); higher = stronger binding
Conditions in all cases: glycan notation: IUPAC condensed, linker removed
[1] = biological target: Neu5Ac(a2-8)Neu5Ac
Procedure, shortened: (§1)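 The binding signal is a Z-score computed within each array and averaged over linkers. Arrays of the same protein sequence at different concentrations or buffers were also averaged together. Data originate from 3228 arrays in the Consortium for Functional Glycomics database, kept only where the protein sequence was available.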

[2] = biological target: Neu5Ac(a2-8)Neu5Ac(a2-3)Gal(b1-3)GalNAc(b1-4)[Neu5Ac(a2-3)]Gal(b1-4)Glc
Procedure, shortened: as §1

[3] = biological target: Neu5Ac(a2-8)Neu5Ac(a2-3)Gal(b1-3)GalNAc(b1-4)[Neu5Ac(a2-8)Neu5Ac(a2-3)]Gal(b1-4)Glc
Procedure, shortened: as §1

[4] = biological target: Neu5Ac(a2-8)Neu5Ac(a2-3)Gal(b1-4)Glc
Procedure, shortened: as §1

[5] = biological target: Neu5Ac(a2-8)Neu5Ac(a2-3)Gal(b1-4)GlcNAc
Procedure, shortened: as §1

[6] = biological target: Neu5Ac(a2-8)Neu5Ac(a2-3)[Gal(b1-3)GalNAc(b1-4)]Gal(b1-4)Glc
Procedure, shortened: as §1

[7] = biological target: Neu5Ac(a2-8)Neu5Ac(a2-3)[GalNAc(b1-4)]Gal(b1-4)Glc
Procedure, shortened: as §1

[8] = biological target: Neu5Ac(a2-8)Neu5Ac(a2-8)Neu5Ac
Procedure, shortened: as §1

[9] = biological target: Neu5Ac(a2-8)Neu5Ac(a2-8)Neu5Ac(a2-3)Gal(b1-4)Glc
Procedure, shortened: as §1

[10] = biological target: Neu5Ac(a2-8)Neu5Ac(a2-8)Neu5Ac(a2-3)[Gal(b1-3)GalNAc(b1-4)]Gal(b1-4)Glc
Procedure, shortened: as §1

[11] = biological target: Neu5Ac(a2-8)Neu5Ac(a2-8)Neu5Ac(a2-3)[GalNAc(b1-4)]Gal(b1-4)Glc
Procedure, shortened: as §1

[12] = biological target: Neu5Ac(a2-8)Neu5Ac(a2-8)Neu5Ac(a2-8)Neu5Ac(a2-3)[GalNAc(b1-4)]Gal(b1-4)Glc
Procedure, shortened: as §1

[13] = biological target: Neu5Ac(a2-8)Neu5Gc(a2-3)Gal(b1-4)GlcNAc
Procedure, shortened: as §1

[14] = biological target: Neu5Ac(b2-6)Gal(b1-4)GlcNAc
Procedure, shortened: as §1

[15] = biological target: Neu5Ac(b2-6)GalNAc
Procedure, shortened: as §1

[16] = biological target: Neu5Ac9Ac(a2-3)Gal(b1-3)GlcNAc
Procedure, shortened: as §1

[17] = biological target: Neu5Ac9Ac(a2-3)Gal(b1-4)GlcNAc
Procedure, shortened: as §1

[18] = biological target: Neu5Ac9Ac(a2-6)Gal(b1-4)GlcNAc
Procedure, shortened: as §1

[19] = biological target: Neu5Gc(a2-3)Gal(b1-3)GlcNAc
Procedure, shortened: as §1

[20] = biological target: Neu5Gc(a2-3)Gal(b1-3)[Fuc(a1-4)]GlcNAc
Procedure, shortened: as §1

[21] = biological target: Neu5Gc(a2-3)Gal(b1-4)Glc
Procedure, shortened: as §1

[22] = biological target: Neu5Gc(a2-3)Gal(b1-4)GlcNAc
Procedure, shortened: as §1

[23] = biological target: Neu5Gc(a2-3)Gal(b1-4)GlcNAc(b1-3)Gal(b1-4)GlcNAc(b1-2)Man(a1-3)[Neu5Gc(a2-3)Gal(b1-4)GlcNAc(b1-3)Gal(b1-4)GlcNAc(b1-2)Man(a1-6)]Man(b1-4)GlcNAc(b1-4)GlcNAc
Procedure, shortened: as §1

[24] = biological target: Neu5Gc(a2-3)Gal(b1-4)[Fuc(a1-3)]GlcNAc
Procedure, shortened: as §1

[25] = biological target: Neu5Gc(a2-6)Gal(b1-4)GlcNAc
Procedure, shortened: as §1

[26] = biological target: Neu5Gc(a2-6)GalNAc
Procedure, shortened: as §1

[27] = biological target: Neu5Gc(a2-8)Neu5Ac(a2-3)Gal(b1-4)GlcNAc
Procedure, shortened: as §1

[28] = biological target: Neu5Gc(a2-8)Neu5Gc(a2-3)Gal(b1-4)GlcNAc
Procedure, shortened: as §1

[29] = biological target: Neu5Gc(a2-8)Neu5Gc(a2-3)Gal(b1-4)GlcNAc(b1-3)Gal(b1-4)GlcNAc
Procedure, shortened: as §1

[30] = biological target: Neu5Gc(a2-8)Neu5Gc(a2-6)Gal(b1-4)GlcNAc
Procedure, shortened: as §1

[31] = biological target: Neu5Gc(b2-6)Gal(b1-4)GlcNAc
Procedure, shortened: as §1

B1: AntigenI/IIA3VP1 (Streptococcus mutans), C9E3B4 (protein)
chain: AANEADYQAKLTAYQTELARVQKANADAKAAYEAAVAANNAANAALTAENTAIKKRNADAKADYEAKLAKYQADLAKYQKDLADYPVKLKAYEDEQASIKAALAELEKHKNEDGNLTEPSAQNLVYDLEPNANLSLTTDGKFLKASAVDDAFSKSTSKAKYDQKILQLDDLDITNLEQSNDVASSMELYGNFGDKAGWSTTVSNNSQVKWGSVLLERGQSATATYTNLQNSYYNGKKISKIVYKYTVDPKSKFQGQKVWLGIFTDPTLGVFASAYTGQVEKNTSIFIKNEFTFYDEDGKPINFDNALLSVASLNREHNSIEMAKDYSGKFVKISGSSIGEKNGMIYATDTLNFKQGEGGSRWTMYKNSQAGSGWDSSDAPNSWYGAGAIKMSGPNNYVTVGATSATNVMPVSDMPVVPGKDNTDGKKPNIWYSLNGKIRAVNVPKVTKEKPTPPVKPTAPTKPTYETEKPLKPAPVAPNYEKEPTPPTRLEHHHHHH
glycan array binding signal (z-score) [1]: -0.381
glycan array binding signal (z-score) [2]: 0.241
glycan array binding signal (z-score) [3]: -0.035
glycan array binding signal (z-score) [4]: -0.254
glycan array binding signal (z-score) [5]: -0.757
glycan array binding signal (z-score) [6]: -0.073
glycan array binding signal (z-score) [7]: 0.407
glycan array binding signal (z-score) [8]: -0.735
glycan array binding signal (z-score) [9]: -0.757
glycan array binding signal (z-score) [10]: 0.119
glycan array binding signal (z-score) [11]: 0.775
glycan array binding signal (z-score) [12]: 0.749
glycan array binding signal (z-score) [13]: -0.976
glycan array binding signal (z-score) [14]: 0.331
glycan array binding signal (z-score) [15]: -1.14
glycan array binding signal (z-score) [16]: -1.54
glycan array binding signal (z-score) [17]: -1.29
glycan array binding signal (z-score) [18]: -0.505
glycan array binding signal (z-score) [19]: -0.716
glycan array binding signal (z-score) [20]: -0.885
glycan array binding signal (z-score) [21]: -0.071
glycan array binding signal (z-score) [22]: -0.465
glycan array binding signal (z-score) [23]: 1.88
glycan array binding signal (z-score) [24]: 0.707
glycan array binding signal (z-score) [25]: 0.798
glycan array binding signal (z-score) [26]: 0.494
glycan array binding signal (z-score) [27]: 1.66
glycan array binding signal (z-score) [28]: -0.703
glycan array binding signal (z-score) [29]: -1.17
glycan array binding signal (z-score) [30]: -1.3
glycan array binding signal (z-score) [31]: 1.01
